This passage reports binding results from PMC4118103.

Amino acid sequences for entries named in this document (tags omitted).
UniProt Q5S007: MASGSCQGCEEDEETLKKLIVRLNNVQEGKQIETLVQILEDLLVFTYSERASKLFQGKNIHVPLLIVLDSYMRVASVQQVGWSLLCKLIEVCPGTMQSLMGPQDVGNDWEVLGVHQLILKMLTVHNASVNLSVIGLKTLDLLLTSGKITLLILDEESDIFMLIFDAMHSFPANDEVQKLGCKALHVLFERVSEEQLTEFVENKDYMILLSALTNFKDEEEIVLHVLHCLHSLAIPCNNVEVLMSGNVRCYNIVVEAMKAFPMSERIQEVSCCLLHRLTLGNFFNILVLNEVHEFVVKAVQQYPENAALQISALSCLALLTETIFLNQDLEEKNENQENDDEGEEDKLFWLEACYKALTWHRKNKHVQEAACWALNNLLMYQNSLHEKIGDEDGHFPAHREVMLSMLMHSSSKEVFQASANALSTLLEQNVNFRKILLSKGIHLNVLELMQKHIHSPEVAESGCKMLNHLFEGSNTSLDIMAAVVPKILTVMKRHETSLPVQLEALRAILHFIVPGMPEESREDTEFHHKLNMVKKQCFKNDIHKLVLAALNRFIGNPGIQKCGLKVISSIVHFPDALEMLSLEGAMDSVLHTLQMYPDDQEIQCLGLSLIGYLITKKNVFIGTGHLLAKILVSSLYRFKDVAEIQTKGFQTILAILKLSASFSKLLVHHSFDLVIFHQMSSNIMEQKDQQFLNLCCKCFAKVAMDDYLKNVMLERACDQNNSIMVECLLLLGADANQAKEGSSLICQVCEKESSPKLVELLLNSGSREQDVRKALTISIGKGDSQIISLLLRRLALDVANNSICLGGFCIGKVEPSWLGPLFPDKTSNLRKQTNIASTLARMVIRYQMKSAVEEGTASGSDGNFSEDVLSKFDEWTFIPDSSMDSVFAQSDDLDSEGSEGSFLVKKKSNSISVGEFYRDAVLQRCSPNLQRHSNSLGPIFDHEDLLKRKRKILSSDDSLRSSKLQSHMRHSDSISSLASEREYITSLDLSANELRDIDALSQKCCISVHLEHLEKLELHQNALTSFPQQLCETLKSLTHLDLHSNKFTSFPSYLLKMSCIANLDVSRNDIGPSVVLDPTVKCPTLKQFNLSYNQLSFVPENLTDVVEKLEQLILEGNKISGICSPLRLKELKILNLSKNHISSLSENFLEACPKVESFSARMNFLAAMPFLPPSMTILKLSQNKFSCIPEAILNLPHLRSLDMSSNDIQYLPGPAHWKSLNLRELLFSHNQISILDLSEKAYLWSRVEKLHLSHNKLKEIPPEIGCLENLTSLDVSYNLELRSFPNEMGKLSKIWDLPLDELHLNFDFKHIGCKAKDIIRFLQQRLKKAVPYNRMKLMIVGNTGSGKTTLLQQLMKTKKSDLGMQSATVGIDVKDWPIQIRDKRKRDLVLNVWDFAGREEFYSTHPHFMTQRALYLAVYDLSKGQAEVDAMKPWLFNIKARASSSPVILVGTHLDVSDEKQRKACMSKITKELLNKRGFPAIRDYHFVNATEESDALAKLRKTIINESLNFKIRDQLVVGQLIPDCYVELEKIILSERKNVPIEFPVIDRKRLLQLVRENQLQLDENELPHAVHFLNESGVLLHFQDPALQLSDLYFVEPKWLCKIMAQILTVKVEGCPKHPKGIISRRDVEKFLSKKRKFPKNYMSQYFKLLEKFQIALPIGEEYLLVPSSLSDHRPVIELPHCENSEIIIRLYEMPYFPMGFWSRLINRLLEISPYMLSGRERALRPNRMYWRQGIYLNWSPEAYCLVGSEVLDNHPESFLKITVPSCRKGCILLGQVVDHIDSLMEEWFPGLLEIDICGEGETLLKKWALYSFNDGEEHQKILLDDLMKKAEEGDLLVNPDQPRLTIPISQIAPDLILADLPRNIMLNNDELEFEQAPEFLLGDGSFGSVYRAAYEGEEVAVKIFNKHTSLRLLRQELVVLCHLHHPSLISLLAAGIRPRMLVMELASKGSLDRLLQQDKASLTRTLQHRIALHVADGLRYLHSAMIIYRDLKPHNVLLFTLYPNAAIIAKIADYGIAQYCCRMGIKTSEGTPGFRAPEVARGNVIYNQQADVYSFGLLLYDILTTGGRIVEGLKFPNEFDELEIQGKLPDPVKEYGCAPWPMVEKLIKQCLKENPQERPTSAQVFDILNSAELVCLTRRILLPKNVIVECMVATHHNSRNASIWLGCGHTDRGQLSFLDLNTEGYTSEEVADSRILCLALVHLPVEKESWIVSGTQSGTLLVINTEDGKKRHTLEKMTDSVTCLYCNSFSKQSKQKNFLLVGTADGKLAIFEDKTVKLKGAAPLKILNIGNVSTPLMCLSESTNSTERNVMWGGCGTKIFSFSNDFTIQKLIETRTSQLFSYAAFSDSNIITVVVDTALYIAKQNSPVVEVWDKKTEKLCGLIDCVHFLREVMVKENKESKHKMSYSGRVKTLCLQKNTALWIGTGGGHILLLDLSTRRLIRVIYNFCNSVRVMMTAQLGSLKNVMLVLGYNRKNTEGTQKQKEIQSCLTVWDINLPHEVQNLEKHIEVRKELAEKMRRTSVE
UniProt P62136: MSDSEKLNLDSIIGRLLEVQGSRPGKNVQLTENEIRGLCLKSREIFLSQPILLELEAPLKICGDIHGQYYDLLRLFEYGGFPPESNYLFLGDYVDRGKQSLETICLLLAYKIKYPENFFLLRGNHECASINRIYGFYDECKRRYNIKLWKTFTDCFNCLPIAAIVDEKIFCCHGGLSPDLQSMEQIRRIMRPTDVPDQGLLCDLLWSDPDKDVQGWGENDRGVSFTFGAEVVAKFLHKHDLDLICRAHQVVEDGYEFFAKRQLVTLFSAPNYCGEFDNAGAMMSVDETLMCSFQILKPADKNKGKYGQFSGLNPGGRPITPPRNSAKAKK

The assay concerns the target 3×FLAG-LRRK2 WT (UniProt Q5S007). As to the kind of experiment: co-IP; HEK-293T cells transiently expressing WT FLAG LRRK2, blot for PP1α; untreated or treated with arsenite, LRRK2IN-1 or H2O2.

Results are given in words; binding and its absence hold for the method and conditions named. In cells and extracts the contact can be indirect. Some results given as binding are weak or reduced against the parent protein; the word gives no strength.

On to “protein phosphatase 1α (PP1α) (from UniProt P62136 1-330) (enzyme)”, for which the binding entry is “binds”.
